The values that follow come from article PMC7968368.

Chains of the proteins cited; added tags and fusions are not shown.
UniProt Q9CXY6: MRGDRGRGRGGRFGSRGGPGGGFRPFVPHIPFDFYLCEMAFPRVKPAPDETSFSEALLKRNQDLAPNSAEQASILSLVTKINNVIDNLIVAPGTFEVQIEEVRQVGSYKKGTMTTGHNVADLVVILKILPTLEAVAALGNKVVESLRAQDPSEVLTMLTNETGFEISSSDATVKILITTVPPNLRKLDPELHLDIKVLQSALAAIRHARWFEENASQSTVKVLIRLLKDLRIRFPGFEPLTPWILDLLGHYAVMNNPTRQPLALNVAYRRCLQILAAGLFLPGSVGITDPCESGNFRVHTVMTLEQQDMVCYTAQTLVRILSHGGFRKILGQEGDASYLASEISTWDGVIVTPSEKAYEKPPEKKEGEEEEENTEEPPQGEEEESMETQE
UniProt Q60668: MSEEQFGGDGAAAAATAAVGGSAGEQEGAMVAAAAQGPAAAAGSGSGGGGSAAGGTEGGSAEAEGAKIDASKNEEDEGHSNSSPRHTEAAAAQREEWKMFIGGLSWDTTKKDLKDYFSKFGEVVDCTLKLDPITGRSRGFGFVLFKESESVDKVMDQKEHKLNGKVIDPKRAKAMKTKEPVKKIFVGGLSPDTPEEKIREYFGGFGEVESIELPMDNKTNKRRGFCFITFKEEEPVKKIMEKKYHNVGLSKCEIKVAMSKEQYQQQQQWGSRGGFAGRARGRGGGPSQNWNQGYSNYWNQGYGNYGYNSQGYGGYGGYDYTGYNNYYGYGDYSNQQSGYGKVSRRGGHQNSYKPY
UniProt P13864: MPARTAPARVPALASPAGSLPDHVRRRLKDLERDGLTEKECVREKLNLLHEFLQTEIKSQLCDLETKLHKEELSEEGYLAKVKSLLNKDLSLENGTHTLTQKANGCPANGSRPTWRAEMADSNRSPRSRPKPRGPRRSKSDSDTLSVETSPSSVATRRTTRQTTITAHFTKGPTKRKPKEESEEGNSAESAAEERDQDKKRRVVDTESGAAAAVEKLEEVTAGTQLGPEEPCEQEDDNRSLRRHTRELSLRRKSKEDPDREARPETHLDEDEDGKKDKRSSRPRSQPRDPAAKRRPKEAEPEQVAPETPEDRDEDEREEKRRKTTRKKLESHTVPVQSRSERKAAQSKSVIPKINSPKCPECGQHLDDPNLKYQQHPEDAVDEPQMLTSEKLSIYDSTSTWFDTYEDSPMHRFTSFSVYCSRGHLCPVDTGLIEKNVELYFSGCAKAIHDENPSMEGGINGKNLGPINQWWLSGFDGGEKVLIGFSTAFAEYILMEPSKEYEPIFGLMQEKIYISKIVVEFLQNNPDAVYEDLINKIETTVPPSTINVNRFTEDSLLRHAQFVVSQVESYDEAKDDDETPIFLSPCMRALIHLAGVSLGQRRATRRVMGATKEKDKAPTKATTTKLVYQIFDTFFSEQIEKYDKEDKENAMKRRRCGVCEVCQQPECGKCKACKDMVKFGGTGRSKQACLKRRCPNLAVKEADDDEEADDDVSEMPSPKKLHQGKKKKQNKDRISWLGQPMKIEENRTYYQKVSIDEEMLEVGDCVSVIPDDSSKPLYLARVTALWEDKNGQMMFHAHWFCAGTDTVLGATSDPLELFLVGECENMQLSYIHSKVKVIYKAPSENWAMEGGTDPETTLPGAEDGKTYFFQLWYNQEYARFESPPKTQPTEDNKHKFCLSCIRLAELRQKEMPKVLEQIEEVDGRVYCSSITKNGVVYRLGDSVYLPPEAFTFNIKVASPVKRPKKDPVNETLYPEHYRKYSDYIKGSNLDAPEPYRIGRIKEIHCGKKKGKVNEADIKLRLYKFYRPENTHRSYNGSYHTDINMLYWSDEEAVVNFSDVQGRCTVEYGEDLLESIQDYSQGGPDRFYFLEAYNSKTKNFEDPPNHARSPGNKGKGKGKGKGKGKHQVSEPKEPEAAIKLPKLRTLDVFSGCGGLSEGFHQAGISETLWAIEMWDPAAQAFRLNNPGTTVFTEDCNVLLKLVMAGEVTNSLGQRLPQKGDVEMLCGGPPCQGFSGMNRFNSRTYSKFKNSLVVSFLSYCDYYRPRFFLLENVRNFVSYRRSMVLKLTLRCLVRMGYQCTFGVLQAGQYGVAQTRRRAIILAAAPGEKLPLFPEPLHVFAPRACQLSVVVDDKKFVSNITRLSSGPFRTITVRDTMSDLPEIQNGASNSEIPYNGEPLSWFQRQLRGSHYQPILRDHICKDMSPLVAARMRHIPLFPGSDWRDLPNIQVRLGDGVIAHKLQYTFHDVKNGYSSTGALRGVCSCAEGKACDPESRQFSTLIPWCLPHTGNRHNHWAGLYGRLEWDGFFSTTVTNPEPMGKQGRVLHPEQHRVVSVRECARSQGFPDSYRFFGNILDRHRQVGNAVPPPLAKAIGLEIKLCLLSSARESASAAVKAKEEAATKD
UniProt Q61103: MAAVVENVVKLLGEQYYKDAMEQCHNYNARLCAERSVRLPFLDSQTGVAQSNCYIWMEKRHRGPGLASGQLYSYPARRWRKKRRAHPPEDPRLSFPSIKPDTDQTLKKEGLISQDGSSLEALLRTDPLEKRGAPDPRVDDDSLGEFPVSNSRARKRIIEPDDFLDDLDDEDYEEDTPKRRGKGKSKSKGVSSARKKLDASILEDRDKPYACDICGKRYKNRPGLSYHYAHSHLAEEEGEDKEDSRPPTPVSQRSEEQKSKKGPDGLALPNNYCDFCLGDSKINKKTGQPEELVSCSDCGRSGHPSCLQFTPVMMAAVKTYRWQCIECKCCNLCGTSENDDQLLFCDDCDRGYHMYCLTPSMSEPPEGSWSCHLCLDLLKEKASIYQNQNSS
UniProt P70288: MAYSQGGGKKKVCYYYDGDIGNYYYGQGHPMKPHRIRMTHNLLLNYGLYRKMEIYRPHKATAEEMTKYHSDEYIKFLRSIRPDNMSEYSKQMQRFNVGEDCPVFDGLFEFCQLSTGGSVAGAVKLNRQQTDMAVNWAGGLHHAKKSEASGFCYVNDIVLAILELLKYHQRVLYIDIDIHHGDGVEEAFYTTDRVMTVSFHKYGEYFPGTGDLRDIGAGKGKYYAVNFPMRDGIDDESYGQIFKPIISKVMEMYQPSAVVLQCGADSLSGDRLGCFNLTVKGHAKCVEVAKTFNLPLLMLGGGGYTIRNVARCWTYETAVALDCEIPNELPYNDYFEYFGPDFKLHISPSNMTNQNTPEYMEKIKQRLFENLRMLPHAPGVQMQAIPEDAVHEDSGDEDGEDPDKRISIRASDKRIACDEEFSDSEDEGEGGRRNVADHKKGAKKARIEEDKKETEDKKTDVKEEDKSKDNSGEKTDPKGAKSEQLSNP
UniProt P23198: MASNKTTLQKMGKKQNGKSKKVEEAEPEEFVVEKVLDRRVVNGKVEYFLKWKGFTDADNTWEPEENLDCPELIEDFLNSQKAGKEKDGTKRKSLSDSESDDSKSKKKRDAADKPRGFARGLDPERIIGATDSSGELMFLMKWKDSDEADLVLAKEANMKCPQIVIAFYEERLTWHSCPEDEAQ
UniProt Q6PDQ2: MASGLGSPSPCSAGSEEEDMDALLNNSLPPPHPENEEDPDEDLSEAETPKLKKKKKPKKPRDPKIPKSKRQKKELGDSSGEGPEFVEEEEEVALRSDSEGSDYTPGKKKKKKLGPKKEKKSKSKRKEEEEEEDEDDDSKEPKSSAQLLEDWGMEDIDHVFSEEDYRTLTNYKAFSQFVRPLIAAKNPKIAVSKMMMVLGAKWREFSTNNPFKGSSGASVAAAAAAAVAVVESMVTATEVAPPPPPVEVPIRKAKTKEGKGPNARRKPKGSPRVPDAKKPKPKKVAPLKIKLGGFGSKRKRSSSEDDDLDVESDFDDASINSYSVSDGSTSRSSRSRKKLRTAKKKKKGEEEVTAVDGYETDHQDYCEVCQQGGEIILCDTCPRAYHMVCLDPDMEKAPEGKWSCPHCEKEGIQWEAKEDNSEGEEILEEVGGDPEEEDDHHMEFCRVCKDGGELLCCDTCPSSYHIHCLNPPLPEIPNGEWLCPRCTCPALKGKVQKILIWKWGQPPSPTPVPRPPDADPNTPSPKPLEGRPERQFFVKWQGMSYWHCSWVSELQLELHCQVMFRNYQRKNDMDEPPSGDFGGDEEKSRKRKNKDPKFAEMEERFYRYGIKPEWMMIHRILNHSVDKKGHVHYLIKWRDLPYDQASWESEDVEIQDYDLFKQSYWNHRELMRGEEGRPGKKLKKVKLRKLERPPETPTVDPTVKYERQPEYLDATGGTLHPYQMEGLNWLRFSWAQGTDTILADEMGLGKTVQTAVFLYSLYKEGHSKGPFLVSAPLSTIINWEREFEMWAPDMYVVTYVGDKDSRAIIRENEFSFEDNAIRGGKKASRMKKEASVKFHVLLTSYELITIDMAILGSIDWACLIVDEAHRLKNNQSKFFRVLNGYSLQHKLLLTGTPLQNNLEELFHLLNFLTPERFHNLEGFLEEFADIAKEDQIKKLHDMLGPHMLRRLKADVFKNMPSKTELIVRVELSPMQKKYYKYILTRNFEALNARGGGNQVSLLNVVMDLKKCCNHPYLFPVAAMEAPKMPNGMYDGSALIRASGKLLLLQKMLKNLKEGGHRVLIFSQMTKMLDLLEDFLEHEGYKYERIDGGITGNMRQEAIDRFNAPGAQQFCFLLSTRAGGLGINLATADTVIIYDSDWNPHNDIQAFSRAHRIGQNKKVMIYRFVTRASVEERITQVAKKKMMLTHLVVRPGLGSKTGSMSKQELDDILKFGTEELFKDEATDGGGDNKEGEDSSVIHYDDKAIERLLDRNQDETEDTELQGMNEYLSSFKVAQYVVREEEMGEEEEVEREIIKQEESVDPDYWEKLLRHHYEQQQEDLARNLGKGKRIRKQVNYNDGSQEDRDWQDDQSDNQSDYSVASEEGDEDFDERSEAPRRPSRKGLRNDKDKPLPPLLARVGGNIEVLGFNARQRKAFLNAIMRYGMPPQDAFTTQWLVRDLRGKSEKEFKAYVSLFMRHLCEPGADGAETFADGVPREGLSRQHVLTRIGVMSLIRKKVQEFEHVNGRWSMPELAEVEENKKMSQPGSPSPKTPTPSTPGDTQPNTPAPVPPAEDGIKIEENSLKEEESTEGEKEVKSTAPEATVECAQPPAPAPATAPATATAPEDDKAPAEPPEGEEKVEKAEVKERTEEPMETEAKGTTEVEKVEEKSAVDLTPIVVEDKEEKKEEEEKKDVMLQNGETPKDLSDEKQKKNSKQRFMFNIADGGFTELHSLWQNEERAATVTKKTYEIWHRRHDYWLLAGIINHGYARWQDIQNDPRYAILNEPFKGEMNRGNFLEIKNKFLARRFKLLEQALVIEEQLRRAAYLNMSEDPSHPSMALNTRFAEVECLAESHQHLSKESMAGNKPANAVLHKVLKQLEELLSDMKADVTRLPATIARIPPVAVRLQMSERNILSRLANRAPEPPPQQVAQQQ
UniProt Q6A068: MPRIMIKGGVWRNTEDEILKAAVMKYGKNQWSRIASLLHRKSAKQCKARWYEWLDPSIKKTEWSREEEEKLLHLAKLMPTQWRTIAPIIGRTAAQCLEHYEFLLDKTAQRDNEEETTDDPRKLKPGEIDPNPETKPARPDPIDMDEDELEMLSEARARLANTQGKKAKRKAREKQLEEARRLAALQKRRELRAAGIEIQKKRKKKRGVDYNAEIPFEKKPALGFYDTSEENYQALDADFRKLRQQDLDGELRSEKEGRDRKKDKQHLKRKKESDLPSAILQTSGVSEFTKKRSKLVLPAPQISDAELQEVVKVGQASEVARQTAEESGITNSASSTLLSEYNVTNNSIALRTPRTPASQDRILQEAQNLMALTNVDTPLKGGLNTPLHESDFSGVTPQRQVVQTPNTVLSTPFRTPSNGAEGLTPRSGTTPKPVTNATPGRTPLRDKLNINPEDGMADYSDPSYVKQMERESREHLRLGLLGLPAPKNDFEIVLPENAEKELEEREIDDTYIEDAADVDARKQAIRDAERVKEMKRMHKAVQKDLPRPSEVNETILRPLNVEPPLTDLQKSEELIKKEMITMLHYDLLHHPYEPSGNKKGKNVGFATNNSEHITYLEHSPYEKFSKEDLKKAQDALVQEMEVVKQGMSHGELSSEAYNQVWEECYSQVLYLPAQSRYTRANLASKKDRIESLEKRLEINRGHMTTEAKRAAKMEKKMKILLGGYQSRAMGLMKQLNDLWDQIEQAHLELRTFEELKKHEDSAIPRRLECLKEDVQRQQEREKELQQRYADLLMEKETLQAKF

The chains are these.
T1: TBX2 (T-box 2) (mouse (endogenous in E14.5 lung)) (UniProt Q60707)
T1 sequence: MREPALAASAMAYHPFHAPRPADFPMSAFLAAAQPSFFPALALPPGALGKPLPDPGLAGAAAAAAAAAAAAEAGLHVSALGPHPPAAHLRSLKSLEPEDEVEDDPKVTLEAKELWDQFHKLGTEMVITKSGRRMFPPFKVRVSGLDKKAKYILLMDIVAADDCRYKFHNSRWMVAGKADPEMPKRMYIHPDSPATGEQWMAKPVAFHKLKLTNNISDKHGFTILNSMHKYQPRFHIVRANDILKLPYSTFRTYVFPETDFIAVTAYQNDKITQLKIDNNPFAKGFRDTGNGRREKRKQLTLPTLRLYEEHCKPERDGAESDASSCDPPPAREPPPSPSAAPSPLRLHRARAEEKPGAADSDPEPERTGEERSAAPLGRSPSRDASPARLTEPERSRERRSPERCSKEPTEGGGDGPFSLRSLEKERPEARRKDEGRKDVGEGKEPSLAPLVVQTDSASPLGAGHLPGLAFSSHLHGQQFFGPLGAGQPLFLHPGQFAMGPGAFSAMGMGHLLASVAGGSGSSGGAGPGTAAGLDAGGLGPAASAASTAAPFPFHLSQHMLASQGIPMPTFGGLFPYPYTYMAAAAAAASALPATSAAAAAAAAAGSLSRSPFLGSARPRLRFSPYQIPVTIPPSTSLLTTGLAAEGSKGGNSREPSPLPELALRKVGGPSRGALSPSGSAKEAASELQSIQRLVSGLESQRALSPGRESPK

B1: HMGB2 (high mobility group box 2) (protein, UniProt P30681 1-210)
chain: MGKGDPNKPRGKMSSYAFFVQTCREEHKKKHPDSSVNFAEFSKKCSERWKTMSAKEKSKFEDLAKSDKARYDREMKNYVPPKGDKKGKKKDPNAPKRPPSAFFLFCSENRPKIKIEHPGLSIGDTAKKLGEMWSEQSAKDKQPYEQKAAKLKEKYEKDIAAYRAKGKSEAGKKGPGRPTGSKKKNEPEDEEEEEEEEEEEDDEEEEEDEE
B2: RBM39 (RNA binding motif protein 39) (protein, UniProt Q8VH51 1-530)
chain: MADDIDIEAMLEAPYKKDENKLNSANGHEERSKKRKKSKSRSRSHERKRSKSKERKRSRDRERKKSKSRERKRSRSKERRRSRSRSRDRRFRGRYRSPYSGPKFNSAIRGKIGLPHSIKLSRRRSRSKSPFRKDKSPVREPIDNLTPEERDARTVFCMQLAARIRPRDLEEFFSTVGKVRDVRMISDRNSRRSKGIAYVEFVDVSSVPLAIGLTGQRVLGVPIIVQASQAEKNRAAAMANNLQKGSAGPMRLYVGSLHFNITEDMLRGIFEPFGRIESIQLMMDSETGRSKGYGFITFSDSECAKKALEQLNGFELAGRPMKVGHVTERTDASSASSFLDSDELERTGIDLGTTGRLQLMARLAEGTGLQIPPAAQQALQMSGSLAFGAVAEFSFVIDLQTRLSQQTEASALAAAASVQPLATQCFQLSNMFNPQTEEEVGWDTEIKDDVIEECNKHGGVIHIYVDKNSAQGNVYVKCPSIAAAIAAVNALHGRWFAGKMITAAYVPLPTYHNLFPDSMTATQLLVPSRR
B3: RBM14 (RNA binding motif protein 14) (protein, UniProt Q8C2Q3 1-669)
chain: MKIFVGNVDGADTTPEELAALFAPYGTVMSCAVMKQFAFVHMRENAGAVRAIEALHGHELRPGRALVVEMSRPRPLNTWKIFVGNVSAACTSQELRSLFERRGRVIECDVVKDYAFVHMEKEADAKAAIAQLNGKEVKGKRINVELSTKGQKKGPALAIQSGDKTKKPGAGDTAFPGTGGFSATFDYQQAFGNSTGGFDGQARQPTPPFFGRDRSPLRRSPPRASYVAPLTAQPATYRAQPSVSLGAAYRAQPSASLGVGYRTQPMAAQAASYRAQPSVSLGAPYRGQLASPSSQSAAASSLGPYGGVQPSASALSTYGGQAAAASSLNSYGAQGSSLASYGNQPSSYGAQAASSYGVRAAASSYNTQGAASSLGSYGAQAASYGAQSAASSLAYGAQAASYSAQPSASYSAQSAPYAAQQAASYSSQPAAYVAQPATAAAYASQPAAYAAQATTPMAGSYGAQPVVQTQLNSYGAQASIGLSGSYGAQSAAAATGSYGAAAAYGAQPSATLAAPYRTQSSASLAASYAAQQHPQAAASYRGQPGSAYDGTGQPSAAYLSMSQGAVANANSTPPPYERTRLSPPRASYDDPYKKAVAMSKRYGSDRRLAELSDYRRLSESQLSFRRSPTKSSLDYRRLPDAHSDYARYSGSYNDYLRAAQMHSGYQRRM
B4: MYBBP1A (MYB binding protein (P160) 1a) (protein, UniProt Q7TPV4 1-1344)
chain: MAEMKSPTKAEPATPAEAAQSDRHSLLEHSREFLDFFWDIAKPDQETRLRATEKLLEYLRTRPNDSEMKYALKRLITGLGVGREAARPCYSLALAQLLQSFEDIPLCDILDQIQEKYSLQAMNKAMMRPSLFANLFGVLALFQSGRLVKDKEALMKSVQLLKILSQHPNHLQGQPIKALVDILSEVPESMFQEILPKVLKGNMKVILRSPKYLELFLLAKQRVPTKLESLMGSVDLFSEDNIPSLVNILKVAANSVKKEHKLPNVALDLLRLALKESRFELFWKKVLEEGLLKNPSWTSSYMCFRLLGASLPLLSEEQLQLVMRGDLIRHFGENMVISKPQNLFKIIPEISTYVGTFLEGCQDDPKRQLTMMVAFTTITNQGLPVMPTFWRVTRFLNAEALQSYVAWLRDMFLQPDLNSLVDFSTANQKRAQDASLNVPERAVFRLRKWIIHRLVSLVDHLHLEKDEAVVEQIARFCLFHAFFKTKKATPQIPETKQHFSFPLDDRNRGVFVSAFFSLLQTLSVKFRQTPDLAENGKPWTYRLVQLADMLLNHNRNVTSVTSLTTQQRQAWDQMMSTLKELEARSSETRAIAFQHLLLLVGLHIFKSPAESCDVLGDIQTCIKKSMEQNPRRSRSRAKASQEPVWVEVMVEILLSLLAQPSNLMRQVVRSVFGHICPHLTPRCLQLILAVLSPVTNEDEDDNVVVTDDADEKQLQHGEDEDSDNEDNKNSESDMDSEDGEESEEEDRDKDVDPGFRQQLMEVLKAGNALGGVDNEEEEELGDEAMMALDQNLASLFKEQKMRIQARNEEKNKLQKEKKLRRDFQIRALDLIEVLVTKQPEHPLILELLEPLLNVIQHSMRSKGSTKQEQDLLHKTARIFMHHLCRARRYCHEVGPCAEALHAQVERLVQQAGSQADASVALYYFNASLYLLRVLKGNTNKRHQDGHKLHGADTEDSEDQAANCLDLDFVTRVYSASLESLLTKRNSSLTVPMFLSLFSRYPVICKNLLPVLAQHVAGPSRPRHQAQACLMLQKTLSARELRVCFEDPEWEQLITQLLGKATQTLQTLGEAQSKGEHQKELSILELLNTLLRTVNHEKLSVDLTAPLGVLQSKQQKLQQSLQQGNHSSGSNRLYDLYWQAMRMLGVQRPKSEKKNAKDIPSDTQSPVSTKRKKKGFLPETKKRKKLKSEGTTPEKNAASQQDAVTEGAMPAATGKDQPPSTGKKKRKRVKASTPSQVNGITGAKSPAPSNPTLSPSTPAKTPKLQKKKEKLSQVNGATPVSPIEPESKKHHQEALSTKEVIRKSPHPQSALPKKRARLSLVSRSPSLLQSGVKKRRVASRRVQTP
B5: LMNB1 (lamin B1) (protein, UniProt P14733 1-588)
chain: MATATPVQQQRAGSRASAPATPLSPTRLSRLQEKEELRELNDRLAVYIDKVRSLETENSALQLQVTEREEVRGRELTGLKALYETELADARRALDDTARERAKLQIELGKFKAEHDQLLLNYAKKESDLSGAQIKLREYEAALNSKDAALATALGDKKSLEGDLEDLKDQIAQLEASLSAAKKQLADETLLKVDLENRCQSLTEDLEFRKNMYEEEINETRRKHETRLVEVDSGRQIEYEYKLAQALHEMREQHDAQVRLYKEELEQTYHAKLENARLSSEMNTSTVNSAREELMESRMRIESLSSQLSNLQKESRACLERIQELEDMLAKERDNSRRMLSDREREMAEIRDQMQQQLSDYEQLLDVKLALDMEISAYRKLLEGEEERLKLSPSPSSRVTVSRASSSRSVRTTRGKRKRVDVEESEASSSVSISHSASATGNVCIEEIDVDGKFIRLKNTSEQDQPMGGWEMIRKIGDTSVSYKYTSRYVLKAGQTVTVWAANAGVTASPPTDLIWKNQNSWGTGEDVKVILKNSQGEEVAQRSTVFKTTIPEEEEEEEEEPIGVAVEEERFHQQGAPRASNKSCAIM

These are yes or no findings as the source states them, for the method shown. Binding seen in cells or lysates may run through a third protein. These calls come from enrichment with a bait or labelling near it, and not all partners need be listed. No binding means not detected with the bait.

For this test, the target named is T1, TBX2 (T-box 2) (mouse (endogenous in E14.5 lung)). Briefly: affinity purification with mass spectrometry; RIME protocol: formaldehyde-fixed E14.5 wildtype mouse lungs (100 each, three experiments), lysate incubated overnight at 4 °C with anti-TBX2 antibody on Protein G magnetic beads; control normal rabbit IgG; LC-MS/MS; enrichment of 2 or larger.
On to “SMARCC1 (SWI/SNF related, matrix associated, actin dependent regulator of chromatin, subfamily c, member 1) (from UniProt P97496 1-1104)”, for which the binding result is listed as “binds”.
The same measure for “ILF2 (interleukin enhancer binding factor 2) (from UniProt Q9CXY6 1-390)”: “binds”; for “HNRNPD (heterogeneous nuclear ribonucleoprotein D) (from UniProt Q60668 1-355)”: “binds”.
Next, “DNMT1 (DNA (cytosine-5) methyltransferase 1) (from UniProt P13864 1-1620) (enzyme)”: “binds”; “DPF2 (D4, zinc and double PHD fingers family 2) (from UniProt Q61103 1-391)”: “binds”; “HDAC1 (histone deacetylase 1) (from UniProt O09106 1-482) (enzyme)”: “binds”.
Take “SMARCA2 (SWI/SNF related, matrix associated, actin dependent regulator of chromatin, subfamily a, member 2) (from UniProt Q6DIC0 1-1577) (enzyme)”: the binding entry is on record as “no binding”.
For the molecule “HDAC2 (histone deacetylase 2) (from UniProt P70288 1-488) (enzyme)”, the binding entry was “binds”.
On to “CBX3 (chromobox 3) (from UniProt P23198 1-183)”, for which the binding result was “binds”.
As to “CHD4 (chromodomain helicase DNA binding protein 4) (from UniProt Q6PDQ2 1-1915) (enzyme)”, the binding entry is on record as “binds”.
Next, “SMARCA4 (SWI/SNF related, matrix associated, actin dependent regulator of chromatin, subfamily a, member 4) (from UniProt Q3TKT4 1-1613) (enzyme)”: “no binding”; “CDC5L (cell division cycle 5-like) (from UniProt Q6A068 1-802)”: “binds”.
Next, B1: “binds”; B2: “binds”.
Next, B3: “binds”; B4: “binds”.
As for B5, the binding entry is listed as “binds”.
